Measurements as given in patent US20030134848A1, “Substituted 1-aza-2-imino-heterocycles and their use as nicotinic acetylcholin receptors activators” (priority 2000, published 2003).
For at least one compound, name, drawing or mass did not settle the structure.

The chains behind the UniProt entries cited, without tags or fusion partners. Residues count along the entry.
UniProt P17787, 26-502: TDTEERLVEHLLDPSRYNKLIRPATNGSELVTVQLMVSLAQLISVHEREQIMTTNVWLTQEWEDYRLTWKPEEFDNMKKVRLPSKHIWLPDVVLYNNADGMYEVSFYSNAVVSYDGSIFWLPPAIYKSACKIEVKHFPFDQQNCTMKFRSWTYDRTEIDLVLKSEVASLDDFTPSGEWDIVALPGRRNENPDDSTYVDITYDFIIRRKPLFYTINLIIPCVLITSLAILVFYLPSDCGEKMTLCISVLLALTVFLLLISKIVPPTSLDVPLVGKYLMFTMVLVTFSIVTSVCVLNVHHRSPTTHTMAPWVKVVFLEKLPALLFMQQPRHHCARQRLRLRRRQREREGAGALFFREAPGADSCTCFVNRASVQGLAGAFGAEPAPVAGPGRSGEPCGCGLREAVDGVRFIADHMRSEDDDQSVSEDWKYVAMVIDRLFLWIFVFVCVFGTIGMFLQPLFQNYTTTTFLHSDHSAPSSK
UniProt P43681, 29-627 limits assumed: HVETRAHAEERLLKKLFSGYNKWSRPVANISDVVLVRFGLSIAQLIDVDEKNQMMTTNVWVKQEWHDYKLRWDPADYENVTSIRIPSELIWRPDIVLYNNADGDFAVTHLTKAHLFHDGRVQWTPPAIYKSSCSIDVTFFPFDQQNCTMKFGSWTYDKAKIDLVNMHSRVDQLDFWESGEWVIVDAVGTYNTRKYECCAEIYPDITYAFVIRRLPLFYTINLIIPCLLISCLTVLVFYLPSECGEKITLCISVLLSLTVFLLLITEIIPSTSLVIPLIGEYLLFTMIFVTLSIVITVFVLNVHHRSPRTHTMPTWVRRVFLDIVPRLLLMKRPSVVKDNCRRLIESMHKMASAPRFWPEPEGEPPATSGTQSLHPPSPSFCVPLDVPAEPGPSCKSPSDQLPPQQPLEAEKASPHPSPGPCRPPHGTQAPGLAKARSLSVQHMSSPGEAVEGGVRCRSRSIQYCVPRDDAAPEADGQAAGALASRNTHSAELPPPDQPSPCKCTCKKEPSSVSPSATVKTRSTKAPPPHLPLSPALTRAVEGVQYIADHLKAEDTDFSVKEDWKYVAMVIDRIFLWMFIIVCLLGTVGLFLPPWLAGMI

Target: T1, human α4β2 subtype of nicotinic acetylcholine receptors (Homo sapiens, UniProt P17787+P43681)
T1 construct: expressed in transfected cells; host or cells: Xenopus laevis oocytes injected with hnACh-R α4 and β2 cRNA (pSP64 polyA vector)
Test: Agonist activity at human α4β2 nicotinic acetylcholine receptors expressed in Xenopus oocytes (membrane potential holding method)
Format: cell-based
Conditions: held at −50 mV, peak inward current, read-out: Agonist activity (ED50)
Experimental: The agonist effect in human α4β2 subtype of nicotinic acetylcholine receptors are examined by using human nicotinic acetylcholine receptors prepared in oocytes of Xenopus laevis, which is injected with cRNA from the corresponding cloning cDNA of human α4 and β2 subunits of nicotinic acetylcholine receptors, and to measure the expression of the electric response by adding the test compounds to perfusion solution by means of membrane potential holding method.
The agonist activities of the compounds of the present invention at human 4β2 subtype of nicotinic acetylcholine receptors was evaluated by the following method, which was modified method described by Papke R. L., Thinschmidt J. S., Moulton B. A., Meyer E. M. & Poirier A., Br. J. Pharmacol., 120, 429-438 (1997).
(1) Preparation of cRNA of Human α4β2 Subtype of Nicotinic Acetylcholine Receptors […]
The recordings of responses at human α4β2 subtype of nicotinic acetylcholine receptors by means of membrane potential holding method were performed as follow. […] Test compounds were added to the perfusion solution, and recorded the peak strength of induced inward current. In order to normalize the responses of test compounds, the responses with acetylcholine (Ach) were recorded before and after application of the test compounds. […]

Nc1nccn1CCc1ccc(Cl)nc1 [Compound 7, 2-amino-1-[2-(6-chloro-pyridyl)ethyl]imidazole]
EC50: 2500 nM
